The list shows a part of the results.
Legend:
Assay in all cases: log2 fold change, soluble protein after heating vs DMSO (PISA); higher = thermal stabilisation; K562 lysate, 10 uM; active = over 0.2 and 3.5 SD of the protein, either way, in both replicates (recomputed)
vemurafenib = compound: CCCS(=O)(=O)Nc1ccc(F)c(C(=O)c2c[nH]c3ncc(-c4ccc(Cl)cc4)cc23)c1F [vemurafenib]
How it was run: (§1)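 Dounce homogenisation of K562 pellets in PBS pH 7.4 with 1 mM MgCl2 produced a crude extract, used at 1 mg/mL protein. Exposure to 10 μM compound lasted 30 min, and aliquots were then heated for 3 min across 48°C-58°C, pooled and brought to 0.5% NP-40 at 4°C. The supernatant after 21,000xg for 90 min was quantified by TMTpro 16plex LC-MS/MS with channel sums equalised. Duplicate values are given as log-two fold change in thermal stability relative to solvent controls.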

Chains of the proteins cited; added tags and fusions are not shown. Lines headed by an entry give the natural chain unless they say otherwise; changes in a name come on top.
UniProt Q99961: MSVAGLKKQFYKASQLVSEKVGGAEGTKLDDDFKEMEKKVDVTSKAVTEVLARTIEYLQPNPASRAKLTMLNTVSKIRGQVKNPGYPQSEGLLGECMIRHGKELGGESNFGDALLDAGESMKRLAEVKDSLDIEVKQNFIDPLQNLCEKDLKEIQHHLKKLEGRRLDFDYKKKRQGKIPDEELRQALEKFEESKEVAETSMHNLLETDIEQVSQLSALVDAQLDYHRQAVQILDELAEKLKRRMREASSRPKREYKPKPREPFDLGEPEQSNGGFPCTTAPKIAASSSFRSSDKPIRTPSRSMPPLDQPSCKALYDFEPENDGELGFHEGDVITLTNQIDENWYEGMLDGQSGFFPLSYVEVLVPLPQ
UniProt Q9NRA2: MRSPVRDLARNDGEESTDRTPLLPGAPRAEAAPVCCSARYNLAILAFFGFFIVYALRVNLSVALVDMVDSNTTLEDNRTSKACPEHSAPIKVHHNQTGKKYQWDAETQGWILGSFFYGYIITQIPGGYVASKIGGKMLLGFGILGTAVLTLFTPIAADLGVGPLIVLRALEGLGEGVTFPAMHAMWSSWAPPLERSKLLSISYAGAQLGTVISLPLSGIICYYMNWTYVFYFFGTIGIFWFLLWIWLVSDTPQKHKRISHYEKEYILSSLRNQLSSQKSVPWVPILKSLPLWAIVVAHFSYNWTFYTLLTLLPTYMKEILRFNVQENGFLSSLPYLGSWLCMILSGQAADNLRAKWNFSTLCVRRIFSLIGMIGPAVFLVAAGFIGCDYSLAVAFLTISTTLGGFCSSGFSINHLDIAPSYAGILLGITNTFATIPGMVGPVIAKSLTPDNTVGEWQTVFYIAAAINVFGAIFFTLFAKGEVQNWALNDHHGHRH
UniProt Q9H9B4: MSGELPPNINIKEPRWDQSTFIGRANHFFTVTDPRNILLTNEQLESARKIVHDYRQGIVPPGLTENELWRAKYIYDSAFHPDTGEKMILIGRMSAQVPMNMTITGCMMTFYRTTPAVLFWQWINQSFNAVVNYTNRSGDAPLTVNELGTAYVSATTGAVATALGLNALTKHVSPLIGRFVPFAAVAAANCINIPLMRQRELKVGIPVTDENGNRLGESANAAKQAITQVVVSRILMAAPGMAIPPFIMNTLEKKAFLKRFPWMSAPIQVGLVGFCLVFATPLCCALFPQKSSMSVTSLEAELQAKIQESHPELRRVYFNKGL
UniProt Q15459: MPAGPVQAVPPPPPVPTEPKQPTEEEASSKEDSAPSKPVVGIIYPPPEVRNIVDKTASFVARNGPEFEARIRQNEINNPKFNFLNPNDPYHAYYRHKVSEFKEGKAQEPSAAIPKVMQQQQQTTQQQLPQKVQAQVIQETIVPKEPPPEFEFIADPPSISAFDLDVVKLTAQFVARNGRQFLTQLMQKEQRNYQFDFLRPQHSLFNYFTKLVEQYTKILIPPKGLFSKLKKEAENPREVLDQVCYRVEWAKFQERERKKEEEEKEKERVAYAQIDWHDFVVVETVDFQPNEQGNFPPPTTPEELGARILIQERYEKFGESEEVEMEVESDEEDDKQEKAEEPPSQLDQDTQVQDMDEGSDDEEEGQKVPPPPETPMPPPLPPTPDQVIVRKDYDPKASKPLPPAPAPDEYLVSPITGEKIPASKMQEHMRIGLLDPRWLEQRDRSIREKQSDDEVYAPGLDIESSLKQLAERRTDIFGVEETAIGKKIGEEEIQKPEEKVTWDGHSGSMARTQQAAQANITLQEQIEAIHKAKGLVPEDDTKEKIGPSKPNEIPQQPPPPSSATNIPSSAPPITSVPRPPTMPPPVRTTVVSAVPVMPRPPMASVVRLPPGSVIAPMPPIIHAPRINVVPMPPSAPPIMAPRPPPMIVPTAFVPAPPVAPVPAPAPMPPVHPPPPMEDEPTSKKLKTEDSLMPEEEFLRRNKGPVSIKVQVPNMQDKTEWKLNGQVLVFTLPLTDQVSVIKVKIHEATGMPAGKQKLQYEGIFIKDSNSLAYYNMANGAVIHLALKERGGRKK
UniProt Q96NB2: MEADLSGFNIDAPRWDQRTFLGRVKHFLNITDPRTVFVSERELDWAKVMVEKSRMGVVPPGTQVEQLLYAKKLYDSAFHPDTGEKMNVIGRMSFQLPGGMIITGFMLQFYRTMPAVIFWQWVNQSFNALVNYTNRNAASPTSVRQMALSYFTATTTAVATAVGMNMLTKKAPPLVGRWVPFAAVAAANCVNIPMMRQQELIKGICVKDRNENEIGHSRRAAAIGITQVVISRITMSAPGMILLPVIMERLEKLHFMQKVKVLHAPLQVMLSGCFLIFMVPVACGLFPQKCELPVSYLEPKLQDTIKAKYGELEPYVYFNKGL
UniProt O95562: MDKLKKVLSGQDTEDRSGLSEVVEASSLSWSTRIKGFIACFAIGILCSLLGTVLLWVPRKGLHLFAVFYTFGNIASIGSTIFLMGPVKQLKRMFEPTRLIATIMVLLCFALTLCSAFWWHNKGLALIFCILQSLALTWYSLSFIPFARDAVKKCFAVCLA
UniProt Q15477, whole entry, looked up: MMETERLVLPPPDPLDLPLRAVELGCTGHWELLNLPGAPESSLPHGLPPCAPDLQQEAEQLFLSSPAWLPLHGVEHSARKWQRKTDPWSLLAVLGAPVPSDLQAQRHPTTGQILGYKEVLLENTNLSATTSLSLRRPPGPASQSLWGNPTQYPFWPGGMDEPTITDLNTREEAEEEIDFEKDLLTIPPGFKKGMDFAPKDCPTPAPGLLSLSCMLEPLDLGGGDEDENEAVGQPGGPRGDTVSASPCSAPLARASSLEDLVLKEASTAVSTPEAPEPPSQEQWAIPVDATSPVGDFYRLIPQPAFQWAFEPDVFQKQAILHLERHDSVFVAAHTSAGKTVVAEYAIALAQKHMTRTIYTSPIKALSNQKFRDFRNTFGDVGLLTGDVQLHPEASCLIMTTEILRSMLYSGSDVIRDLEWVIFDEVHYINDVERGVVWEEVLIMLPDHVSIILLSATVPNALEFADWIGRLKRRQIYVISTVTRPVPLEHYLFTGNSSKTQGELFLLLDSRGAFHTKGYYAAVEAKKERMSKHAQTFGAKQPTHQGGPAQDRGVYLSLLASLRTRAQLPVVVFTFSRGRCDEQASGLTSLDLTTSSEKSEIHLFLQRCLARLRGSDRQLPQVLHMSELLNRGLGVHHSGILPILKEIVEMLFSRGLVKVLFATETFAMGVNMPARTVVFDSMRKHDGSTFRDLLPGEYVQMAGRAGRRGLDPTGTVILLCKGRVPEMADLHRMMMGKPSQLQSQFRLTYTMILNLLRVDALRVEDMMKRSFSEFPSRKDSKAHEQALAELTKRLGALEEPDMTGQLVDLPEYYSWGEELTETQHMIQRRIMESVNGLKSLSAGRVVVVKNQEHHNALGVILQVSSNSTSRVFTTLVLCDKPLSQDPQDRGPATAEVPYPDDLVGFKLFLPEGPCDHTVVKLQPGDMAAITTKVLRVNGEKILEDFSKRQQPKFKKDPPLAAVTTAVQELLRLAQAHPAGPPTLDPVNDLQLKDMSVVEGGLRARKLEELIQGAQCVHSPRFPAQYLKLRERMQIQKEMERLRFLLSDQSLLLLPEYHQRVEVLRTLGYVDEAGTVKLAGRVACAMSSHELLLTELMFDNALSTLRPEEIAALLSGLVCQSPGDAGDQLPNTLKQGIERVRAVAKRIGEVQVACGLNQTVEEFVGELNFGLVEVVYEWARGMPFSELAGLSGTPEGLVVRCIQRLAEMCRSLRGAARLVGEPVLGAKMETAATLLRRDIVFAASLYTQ
UniProt Q8NEM2: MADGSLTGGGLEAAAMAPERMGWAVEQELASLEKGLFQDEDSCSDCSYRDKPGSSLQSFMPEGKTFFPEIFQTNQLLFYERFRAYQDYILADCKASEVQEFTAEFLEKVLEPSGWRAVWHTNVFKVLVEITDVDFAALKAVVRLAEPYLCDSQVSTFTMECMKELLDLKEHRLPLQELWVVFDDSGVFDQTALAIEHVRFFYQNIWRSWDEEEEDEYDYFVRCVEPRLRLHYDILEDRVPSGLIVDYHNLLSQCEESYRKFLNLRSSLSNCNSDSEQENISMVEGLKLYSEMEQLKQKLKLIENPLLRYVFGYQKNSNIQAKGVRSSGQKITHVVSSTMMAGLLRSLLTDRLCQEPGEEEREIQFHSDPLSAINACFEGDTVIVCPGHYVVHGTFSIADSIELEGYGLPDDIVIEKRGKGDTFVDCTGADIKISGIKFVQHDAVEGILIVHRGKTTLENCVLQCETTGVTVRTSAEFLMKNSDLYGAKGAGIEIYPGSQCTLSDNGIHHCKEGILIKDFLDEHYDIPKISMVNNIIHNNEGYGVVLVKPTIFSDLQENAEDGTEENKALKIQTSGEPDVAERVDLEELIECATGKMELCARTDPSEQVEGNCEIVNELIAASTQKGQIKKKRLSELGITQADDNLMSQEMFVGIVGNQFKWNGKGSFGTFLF
UniProt Q9NRX5: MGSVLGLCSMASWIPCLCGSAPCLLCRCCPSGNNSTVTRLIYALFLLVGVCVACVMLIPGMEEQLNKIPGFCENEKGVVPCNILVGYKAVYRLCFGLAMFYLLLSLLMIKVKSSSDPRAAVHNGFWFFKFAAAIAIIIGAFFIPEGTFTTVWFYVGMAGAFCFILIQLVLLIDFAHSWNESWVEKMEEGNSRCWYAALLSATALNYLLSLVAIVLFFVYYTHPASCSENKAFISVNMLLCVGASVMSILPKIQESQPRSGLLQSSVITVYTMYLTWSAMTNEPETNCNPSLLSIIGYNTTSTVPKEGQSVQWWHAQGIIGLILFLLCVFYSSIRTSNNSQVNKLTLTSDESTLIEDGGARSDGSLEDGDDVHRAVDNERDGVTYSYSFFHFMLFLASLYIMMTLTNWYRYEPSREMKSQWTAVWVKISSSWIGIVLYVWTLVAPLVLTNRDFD
UniProt Q96BD8: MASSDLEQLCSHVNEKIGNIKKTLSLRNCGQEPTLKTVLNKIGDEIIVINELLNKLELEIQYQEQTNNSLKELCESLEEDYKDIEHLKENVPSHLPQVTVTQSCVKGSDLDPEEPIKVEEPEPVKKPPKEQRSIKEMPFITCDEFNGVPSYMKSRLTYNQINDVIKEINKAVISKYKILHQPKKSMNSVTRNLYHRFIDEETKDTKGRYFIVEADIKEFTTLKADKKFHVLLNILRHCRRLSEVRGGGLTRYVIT
UniProt Q96ST3: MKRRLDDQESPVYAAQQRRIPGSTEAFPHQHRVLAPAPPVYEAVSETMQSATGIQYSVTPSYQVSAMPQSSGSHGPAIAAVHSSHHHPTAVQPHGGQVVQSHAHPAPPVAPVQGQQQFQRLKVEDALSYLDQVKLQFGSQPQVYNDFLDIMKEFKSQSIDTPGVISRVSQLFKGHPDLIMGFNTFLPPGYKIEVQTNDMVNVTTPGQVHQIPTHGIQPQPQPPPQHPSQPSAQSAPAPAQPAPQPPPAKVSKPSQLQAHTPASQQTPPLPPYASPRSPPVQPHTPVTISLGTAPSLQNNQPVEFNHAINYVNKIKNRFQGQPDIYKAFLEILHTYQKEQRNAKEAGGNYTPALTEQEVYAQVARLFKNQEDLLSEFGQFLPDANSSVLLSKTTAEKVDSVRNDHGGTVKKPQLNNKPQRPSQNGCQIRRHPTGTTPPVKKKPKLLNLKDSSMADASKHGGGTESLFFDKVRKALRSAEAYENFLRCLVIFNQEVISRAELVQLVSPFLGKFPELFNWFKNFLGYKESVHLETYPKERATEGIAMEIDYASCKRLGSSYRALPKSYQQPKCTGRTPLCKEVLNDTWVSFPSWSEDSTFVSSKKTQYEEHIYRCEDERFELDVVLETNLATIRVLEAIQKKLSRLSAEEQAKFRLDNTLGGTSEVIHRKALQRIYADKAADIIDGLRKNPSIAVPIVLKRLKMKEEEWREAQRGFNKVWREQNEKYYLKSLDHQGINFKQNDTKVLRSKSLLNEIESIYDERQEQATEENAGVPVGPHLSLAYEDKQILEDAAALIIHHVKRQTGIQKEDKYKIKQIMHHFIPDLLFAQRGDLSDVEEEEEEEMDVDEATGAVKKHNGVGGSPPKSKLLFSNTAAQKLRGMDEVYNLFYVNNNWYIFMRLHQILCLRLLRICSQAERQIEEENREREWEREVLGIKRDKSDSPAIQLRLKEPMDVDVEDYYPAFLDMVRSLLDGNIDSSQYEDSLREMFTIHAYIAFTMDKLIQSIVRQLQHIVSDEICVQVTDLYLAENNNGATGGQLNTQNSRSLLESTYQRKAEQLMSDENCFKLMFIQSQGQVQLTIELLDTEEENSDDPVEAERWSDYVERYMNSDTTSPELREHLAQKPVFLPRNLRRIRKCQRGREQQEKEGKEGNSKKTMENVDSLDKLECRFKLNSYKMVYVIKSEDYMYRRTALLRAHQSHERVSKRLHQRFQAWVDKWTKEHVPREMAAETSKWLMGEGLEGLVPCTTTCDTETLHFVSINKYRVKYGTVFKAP

[1] = compound: CCCS(=O)(=O)Nc1ccc(F)c(C(=O)c2c[nH]c3ncc(Cl)cc23)c1F
How it was run: as §1

barasertib = compound: CCN(CCCOc1ccc2c(Nc3cc(CC(=O)Nc4cccc(F)c4)[nH]n3)ncnc2c1)CCOP(=O)(O)O [barasertib]
How it was run: as §1

[2] = compound: CC[C@@H]1C(=O)N(C)c2cnc(Nc3ccc(C(=O)NC4CCN(C)CC4)cc3OC)nc2N1C1CCCC1
How it was run: as §1

volasertib = compound: CC[C@@H]1C(=O)N(C)c2cnc(Nc3ccc(C(=O)N[C@H]4CC[C@H](N5CCN(CC6CC6)CC5)CC4)cc3OC)nc2N1C(C)C [volasertib]
How it was run: as §1

[3] = compound: CCn1c(C(=O)N(C2CC2)C2CC2)cc2c3c(ncn3C)c(Nc3cc(C)n(C)n3)nc21
How it was run: as §1

[4] = compound: CCn1cc(-c2ccnc3[nH]c(-c4cccc(CN(C)C)c4)cc23)c(-c2ccc(NC(=O)N(C)C)cc2)n1
How it was run: as §1

[5] = compound: CN1CCC(CNc2ccc3ncc(-c4cccc(OC(F)(F)F)c4)n3n2)CC1
How it was run: as §1

saracatinib = compound: CN1CCN(CCOc2cc(OC3CCOCC3)c3c(Nc4c(Cl)ccc5c4OCO5)ncnc3c2)CC1 [saracatinib]
How it was run: as §1

sotrastaurin = compound: CN1CCN(c2nc(C3=C(c4c[nH]c5ccccc45)C(=O)NC3=O)c3ccccc3n2)CC1 [sotrastaurin]
How it was run: as §1

Measured: log2 fold change

SERBP1 (UniProt Q8NC51)
inactive: vemurafenib -0.039 | [1] -0.012 | barasertib -0.043 | [2] 0.119 | volasertib 0.028 | [3] -0.017 | [4] 0.29 | [5] -0.03 | saracatinib -0.028 | sotrastaurin -0.003

SIRT2 (UniProt Q8IXJ6)
inactive: vemurafenib 0.022 | [1] 0.011 | barasertib -0.076 | [2] 0.009 | volasertib 0.208 | [3] 0.004 | [4] 0.02 | [5] 0.04 | saracatinib 0.034 | sotrastaurin 0.012

SH3BP5 (UniProt O60239)
inactive: vemurafenib 0.007 | [1] 0.049 | barasertib 0.053 | [2] 0.043 | volasertib -0.027 | [3] 0.025 | [4] 0.1 | [5] -0.019 | saracatinib -0.001 | sotrastaurin 0.06

SFPQ (UniProt P23246)
inactive: vemurafenib 0.003 | [1] -0.013 | barasertib 0.019 | [2] -0.003 | volasertib 0.003 | [3] 0.011 | [4] 0.066 | [5] -0.047 | saracatinib 0.003 | sotrastaurin 0.006

SF1 isoform 6 (UniProt Q15637)
inactive: vemurafenib -0.027 | [1] 0.001 | barasertib 0.046 | [2] 0.256 | volasertib -0.001 | [3] -0.043 | [4] -0.005 | [5] 0.034 | saracatinib 0.156

SH3GL1 (UniProt Q99961)
inactive: vemurafenib -0.002 | [1] -0.01 | barasertib -0.019 | [2] 0.044 | volasertib -0.004 | [3] 0.018 | [4] 0.044 | [5] -0.022 | saracatinib 0.011 | sotrastaurin -0.03

SLC17A5 (UniProt Q9NRA2)
inactive: vemurafenib -0.015 | [1] 0.069 | barasertib 0.117 | [2] 0.042 | volasertib -0.023 | [3] -0.053 | [4] -0.061 | [5] 0.187 | saracatinib -0.114

SFXN1 (UniProt Q9H9B4)
inactive: vemurafenib -0.047 | [1] -0.023 | barasertib 0.051 | [2] 0.001 | volasertib 0.021 | [3] 0.034 | [4] -0.035 | [5] -0.115 | saracatinib 0.005 | sotrastaurin -0.001

SESN2 (UniProt P58004)
inactive: vemurafenib -0.008 | [1] 0.025 | barasertib 0.049 | [2] -0.103 | volasertib -0.066 | [3] 0.019 | [4] 0.02 | [5] -0.105 | saracatinib -0.043 | sotrastaurin 0.047

SF1 isoform 5 (UniProt Q15637)
inactive: vemurafenib -0.017 | [1] 0.018 | barasertib -0.033 | [2] 0.044 | volasertib 0.009 | [3] -0.006 | [4] -0.033 | [5] 0.055 | saracatinib 0.031 | sotrastaurin -0.1

SF3A1 (UniProt Q15459)
inactive: vemurafenib -0.022 | [1] -0.001 | barasertib 0.016 | [2] 0.052 | volasertib 0.008 | [3] 0.015 | [4] -0.105 | [5] 0.084 | saracatinib -0.006 | sotrastaurin 0.008

SGO1 (UniProt Q5FBB7)
inactive: vemurafenib 0.024 | [1] 0.031 | barasertib 0.011 | [2] 0.014 | volasertib -0.016 | [3] -0.125 | [4] -0.087 | [5] 0.043 | saracatinib -0.045 | sotrastaurin 0.029

SH3GL3 isoform 3 (UniProt Q99963)
inactive: vemurafenib 0.08 | [1] 0.012 | barasertib 0.063 | [2] -0.032 | volasertib -0.049 | [3] -0.051 | [5] 0.33 | saracatinib -0.008 | sotrastaurin 0.035
active: [4] -0.761

SLC16A1 (UniProt P53985)
active: [4] -0.419 | [5] 0.256
inactive: vemurafenib 0.026 | [1] -0.015 | barasertib -0.051 | [2] 0.07 | volasertib 0.043 | [3] -0.034 | saracatinib -0.003 | sotrastaurin 0.02

SFXN2 (UniProt Q96NB2)
inactive: vemurafenib -0.011 | [1] 0 | barasertib 0.03 | [2] 0.019 | volasertib 0.027 | [3] 0.025 | [4] 0.139 | [5] -0.073 | saracatinib -0.04 | sotrastaurin 0.025

SERPINB1 (UniProt P30740)
inactive: vemurafenib -0.004 | [1] 0.004 | barasertib -0.02 | [2] -0.013 | volasertib 0.005 | [3] -0.004 | [4] -0.053 | [5] 0.027 | saracatinib -0.02 | sotrastaurin 0.003

Retrieved one by one from the list above, two records:
SLC16A1 (UniProt P53985)
active: [4] -0.419 | [5] 0.256
inactive: vemurafenib 0.026 | [1] -0.015 | barasertib -0.051 | [2] 0.07 | volasertib 0.043 | [3] -0.034 | saracatinib -0.003 | sotrastaurin 0.02

SH3GL3 isoform 3 (UniProt Q99963)
inactive: vemurafenib 0.08 | [1] 0.012 | barasertib 0.063 | [2] -0.032 | volasertib -0.049 | [3] -0.051 | [5] 0.33 | saracatinib -0.008 | sotrastaurin 0.035
active: [4] -0.761

Continuation:

SFT2D2 (UniProt O95562)
inactive: vemurafenib -0.117 | [1] -0.035 | barasertib 0.008 | [2] -0.158 | volasertib 0.071 | [3] -0.027 | [4] 0.067 | [5] 0.143 | saracatinib 0.257 | sotrastaurin 0.059

SETD1A (UniProt O15047)
inactive: vemurafenib 0.012 | [1] 0.056 | barasertib 0.067 | [2] -0.096 | volasertib -0.022 | [3] -0.014 | [4] 0.076 | [5] 0.053 | saracatinib 0.031 | sotrastaurin -0.034

SKIV2L (UniProt Q15477)
inactive: vemurafenib -0.154

SFR1 isoform 2 (UniProt Q86XK3)
inactive: vemurafenib -0.031 | [1] -0.037 | barasertib 0.024 | [2] 0.028 | volasertib 0.022 | [3] 0.013 | [4] -0.087 | [5] -0.119 | saracatinib -0.04 | sotrastaurin 0.085

SHCBP1 (UniProt Q8NEM2)
inactive: vemurafenib -0.016 | [1] 0.003 | barasertib 0.041 | [2] -0.041 | volasertib -0.044 | [3] 0.027 | [4] -0.091 | [5] 0.022 | saracatinib 0.027 | sotrastaurin 0.019

SLC12A6 (UniProt Q9UHW9)
inactive: vemurafenib 0.015 | [1] 0.021 | barasertib 0.002 | [2] 0.037 | volasertib 0.002 | [3] 0.008 | [4] -0.06 | [5] 0.012 | saracatinib -0.003 | sotrastaurin -0.01

SF3B3 (UniProt Q15393)
inactive: vemurafenib 0.004 | [1] 0.002 | barasertib 0.001 | [2] -0.004 | volasertib 0.006 | [3] 0.001 | [4] -0.058 | [5] 0.05 | saracatinib 0.002 | sotrastaurin -0.014

SHTN1 (UniProt A0MZ66)
inactive: vemurafenib 0.022 | [1] 0.009 | barasertib 0.002 | [2] 0.043 | volasertib 0.015 | [3] -0.021 | [4] -0.019 | [5] 0.023 | saracatinib 0.015 | sotrastaurin -0.002

SERPINB6, A0A087X1N8
inactive: vemurafenib 0 | [1] 0.042 | barasertib -0.058 | [2] 0.055 | volasertib 0.003 | [3] -0.027 | [4] -0.08 | [5] 0.038 | saracatinib -0.021 | sotrastaurin -0.003

SERINC1 (UniProt Q9NRX5)
inactive: vemurafenib -0.075 | [1] 0.07 | barasertib -0.042 | [2] 0.052 | volasertib 0.073 | [3] -0.045 | [4] -0.287 | [5] 0.099 | saracatinib 0.026 | sotrastaurin -0.026

SLC19A1 (UniProt P41440)
inactive: vemurafenib 0.028 | [1] -0.005 | barasertib 0.059 | [2] 0.014 | volasertib 0.047 | [3] -0.036 | [4] -0.203 | [5] 0.165 | saracatinib 0.019 | sotrastaurin 0.025

SH3GLB1 isoform 2 (UniProt Q9Y371)
inactive: vemurafenib -0.019 | [1] 0.018 | barasertib 0.022 | [2] -0.052 | volasertib -0.03 | [3] 0.04 | [4] -0.033 | [5] 0.008 | saracatinib 0.043 | sotrastaurin 0.042

SLC12A2 (UniProt P55011)
inactive: vemurafenib 0.008 | [1] -0.005 | barasertib 0.056 | [2] 0.007 | volasertib -0.047 | [3] -0.017 | [4] 0.13 | [5] -0.073 | saracatinib 0.01 | sotrastaurin 0.03

SKA1 (UniProt Q96BD8)
active: [2] -0.234
inactive: vemurafenib -0.004 | [1] -0.01 | barasertib -0.017 | volasertib -0.121 | [3] 0.003 | [4] -0.167 | [5] 0.021 | saracatinib 0.071 | sotrastaurin 0.066

SIN3A (UniProt Q96ST3)
inactive: vemurafenib -0.005 | [1] 0.017 | barasertib 0.031 | [2] 0.019 | volasertib 0.011 | [3] -0.015 | [4] 0.014 | [5] -0.017 | saracatinib -0.005 | sotrastaurin 0.016
